Binding data for four molecules are collected here from patent US20180066066A1 (University of Texas, published 2018).

Sequences of proteins named here, by UniProt entry; tags and fusion partners are left off. Residues count along the entry.
UniProt P21860, residues 20-643: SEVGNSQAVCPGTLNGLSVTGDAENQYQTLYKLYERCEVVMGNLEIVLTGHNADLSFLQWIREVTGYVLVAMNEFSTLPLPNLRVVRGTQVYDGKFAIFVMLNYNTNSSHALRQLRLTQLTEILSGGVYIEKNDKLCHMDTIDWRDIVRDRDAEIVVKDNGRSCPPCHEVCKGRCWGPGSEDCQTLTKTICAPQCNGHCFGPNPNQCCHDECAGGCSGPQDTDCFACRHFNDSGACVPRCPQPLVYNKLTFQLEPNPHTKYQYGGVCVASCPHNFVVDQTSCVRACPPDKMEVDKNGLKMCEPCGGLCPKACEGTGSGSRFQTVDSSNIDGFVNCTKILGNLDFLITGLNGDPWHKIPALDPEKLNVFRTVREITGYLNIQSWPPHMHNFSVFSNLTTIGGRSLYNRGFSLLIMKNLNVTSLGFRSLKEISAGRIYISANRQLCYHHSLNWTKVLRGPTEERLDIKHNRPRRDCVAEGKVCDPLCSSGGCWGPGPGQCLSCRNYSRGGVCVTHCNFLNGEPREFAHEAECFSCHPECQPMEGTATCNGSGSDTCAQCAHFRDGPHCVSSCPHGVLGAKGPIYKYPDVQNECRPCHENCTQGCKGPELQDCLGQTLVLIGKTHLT
UniProt Q61526, residues 20-641: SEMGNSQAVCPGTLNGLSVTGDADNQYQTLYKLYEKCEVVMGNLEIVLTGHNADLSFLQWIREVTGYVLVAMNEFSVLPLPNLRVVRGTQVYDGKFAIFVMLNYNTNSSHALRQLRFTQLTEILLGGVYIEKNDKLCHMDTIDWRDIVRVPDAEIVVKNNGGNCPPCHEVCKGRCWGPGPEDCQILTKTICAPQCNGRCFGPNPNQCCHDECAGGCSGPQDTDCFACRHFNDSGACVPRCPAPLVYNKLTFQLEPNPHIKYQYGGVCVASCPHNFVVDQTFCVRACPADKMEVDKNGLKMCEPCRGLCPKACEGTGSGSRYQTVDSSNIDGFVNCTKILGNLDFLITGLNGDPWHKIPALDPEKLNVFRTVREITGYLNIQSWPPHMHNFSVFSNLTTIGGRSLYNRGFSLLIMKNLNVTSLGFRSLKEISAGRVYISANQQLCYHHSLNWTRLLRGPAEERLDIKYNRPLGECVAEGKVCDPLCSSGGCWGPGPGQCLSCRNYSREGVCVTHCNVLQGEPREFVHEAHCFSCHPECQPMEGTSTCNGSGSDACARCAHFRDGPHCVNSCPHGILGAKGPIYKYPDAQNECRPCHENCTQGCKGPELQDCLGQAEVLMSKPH

In assay [1] the target is T1, human HER3/ErbB3 extracellular domain (human, UniProt P21860 20-643).
T1 construct: extracellular domain; the range 1-643 of M34309 is printed only for the immunogen; also called Human HER3 ECD; recombinant human HER3
The experiment in a line: ELISA on human HER3 ECD. (In general: In an ELISA, binding on a coated surface is turned into a signal by an enzyme label.)

A further assay deals with T2, Mouse HER3 ECD (mouse, UniProt Q61526 20-641).
T2 construct: extracellular domain; also called mouse HER3 ECD domains
The experiment in a line: ELISA on mouse HER3 ECD.

Numbering of substitutions follows the chain as printed. Results are given in words; binding and its absence hold for the method and conditions named. Some entries that bind do so weakly or less than the wild type.

B1: HER3-hMab-A9 (antibody, V domains shown)
VH: QVQLVESGGGLVQPGGSLRLSCSASGFSFSASYYIYWVRQAPGKGLEYIAYITGDDDKRTYYANWAKGRFTISRDNSKNTVYLQMNSLRAEDTAVYYCTRNLPDELWGPGTLVTVSS
VL: DIQMTQTPSTLSASVGDRVTITCQSSESVYSYKNLAWYQQKPGKPPKLLIWQASRLSSGVPSRFSGSGSGTEFTLTISSLQPDDFATYYCQGTYYSSAWDFVFGGGTKVEIK
For the molecule B1, the binding result (in assay [1]; with Mouse HER3 ECD) was “binds” in each case.

B2: HER3-hMab-A10 (antibody, V domains shown)
VH: B1 VH with N76T
VL: B1 VL
For the molecule B2, the binding entry (in assay [1]; in the assay with Mouse HER3 ECD) was “binds” throughout.

B3: HER3-hMab-A11 (antibody, V domains shown)
VH: B1 VH
VL: B1 VL with D1Q, I2A
As to B3, the binding entry (in assay [1]; with Mouse HER3 ECD) was “binds” in each case.

B4: HER3-hMab-A12 (antibody, V domains shown)
VH: B1 VH with N76T
VL: B1 VL with D1Q, I2A
As to B4, the binding result (in assay [1]; in the assay with Mouse HER3 ECD) was “binds” each time.
